PubChem BioAssay AID1671195, Yale University | 2021
In all, the deposit lists about 22,000 reagents; this is a part drawn at random. About 1,510 of them (6.9%) count as active. 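Active includes knockdowns raising or lowering LDL uptake; positive z-scores mean more uptake, negative mean less.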 Unmarked entries are inactive.

- Assay: 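Genes whose knockdown alters LDL uptake in liver cancer cells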 (primary screen)
- Cells: human Huh7 hepatoma cells
- Reagent: siRNA pool against human genes, 18 nM
- Time to read-out: about 2 to 2.5 days of knockdown, then 8 h LDL uptake
- Conditions: DiI-labelled LDL at 30 µg/ml for 8 h, in lipoprotein-deficient serum medium
- Read-out: 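Per-cell DiI-LDL intensity by automated imaging; well means scaled to the plate median and given as a robust z-score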
- Scale: robust z-score: higher = more LDL uptake after knockdown
- Rule for the call: 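Active when two or more replicates show a robust z-score above 2 or below -2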

KLHL8
- robust z-score, replicate 1: 0.0683
- robust z-score, replicate 2: -0.976
- robust z-score, replicate 3: -0.401

PYROXD1
- robust z-score, replicate 1: 0.7
- robust z-score, replicate 2: 0.254
- robust z-score, replicate 3: 0.324

ZNF92
- robust z-score, replicate 1: -1.49
- robust z-score, replicate 2: -1.23
- robust z-score, replicate 3: -0.726

LOC389669 (retired record)
- robust z-score, replicate 1: 0.149
- robust z-score, replicate 2: 0.863
- robust z-score, replicate 3: 0.738

CFHR3
- robust z-score, replicate 1: -0.467
- robust z-score, replicate 2: -0.0873
- robust z-score, replicate 3: -1.01

SLITRK4
- robust z-score, replicate 1: -0.807
- robust z-score, replicate 2: -1.24
- robust z-score, replicate 3: -2.08

MST1
- robust z-score, replicate 1: -2.1
- robust z-score, replicate 2: -1.84
- robust z-score, replicate 3: -1.6

KLF10
- robust z-score, replicate 1: 1.77
- robust z-score, replicate 2: 1.67
- robust z-score, replicate 3: 1.91

COL4A3
- robust z-score, replicate 1: -0.556
- robust z-score, replicate 2: -1.67
- robust z-score, replicate 3: -1.5

NOL11
- robust z-score, replicate 1: -1.03
- robust z-score, replicate 2: -0.614
- robust z-score, replicate 3: -1.06

LOC387940 (retired record)
- robust z-score, replicate 1: 0.423
- robust z-score, replicate 2: 0.454
- robust z-score, replicate 3: 0.189

ABCC9
- robust z-score, replicate 1: -0.029
- robust z-score, replicate 2: 0.104
- robust z-score, replicate 3: -0.115

CDK13
- robust z-score, replicate 1: -0.613
- robust z-score, replicate 2: -1.47
- robust z-score, replicate 3: -0.843

LINC01777
- robust z-score, replicate 1: -0.138
- robust z-score, replicate 2: -0.584
- robust z-score, replicate 3: -0.637

CDH10
- robust z-score, replicate 1: -0.319
- robust z-score, replicate 2: -0.215
- robust z-score, replicate 3: -0.102

KIF15
- robust z-score, replicate 1: -1.06
- robust z-score, replicate 2: -0.907
- robust z-score, replicate 3: -0.672

Reprinted from the entries so far for reference:
KLF10
- robust z-score, replicate 1: 1.77
- robust z-score, replicate 2: 1.67
- robust z-score, replicate 3: 1.91

COL4A3
- robust z-score, replicate 1: -0.556
- robust z-score, replicate 2: -1.67
- robust z-score, replicate 3: -1.5
